These results are taken from publication PMC7188298.

This assay deals with VdDpb4-YFP^N (Verticillium dahliae). Briefly: split reporter; YFP^N and YFP^C (Venus fragment) fusions cotransformed into V. dahliae V592; colonies on PDA medium for 3 days; fluorescence microscopy.

No constants are given. Whether binding was seen depends on the method and setting. Binding seen in cells or lysates may run through a third protein. Sequences can lack the tags named with a protein.

B1: VDAG_03019-YFP^C (protein, UniProt G2WZZ6 1-204)
chain: MSDSPQSASKDVDQGVPSPDEEGQMNDPQDPHSGGLTYEFEVKEQDRWLPIANVARIMKNALPENAKIAKEAKECMQECVSEFISFITSEASEKCHQEKRKTVNGEDILFAMTSLGFENYAEALKIYLSKYREQQSQTNRGEGGQGARPNSAYGGQPPTGAGSFQAEASGNILGAQPGEGGADASNYMYPPQSGHNGAGAGEGY
In the case of B1, the binding entry is on record as “no binding”.
